Reference: PubChem BioAssay AID540256 (National Center for Advancing Translational Sciences (NCATS), 2011)
About 3,700 (1.2%) of roughly 300,000 compounds were called active. Inconclusive results, whose numbers are uncertain, are shown with a selection of clear calls. Calls follow the shape of the full dose curve; tested in HEK293 cells. A potency beside an inconclusive call is a rough fit, not a confirmed value.

Experiment: qHTS for Inhibitors of binding or entry into cells for Lassa Virus; also: nearly all actives have a fitted effect of over 50% in size
Details: Lassa virus pseudotype entry inhibition, cell reporter; series mostly up to 37.9 µM
Potency is read from the fitted curve at half-maximal effect.

Row | Structure (SMILES) | Potency
1 | CCOC(=O)CSc1nc(-c2ccc(C)cc2C)cc(-c2ccccc2)c1C#N | inactive
2 | CN(C)CCNC(=O)c1ccc(Cl)c2cc3ccccc3nc12 | inconclusive: 11.2 µM [inhibitor, partial curve, poor fit]
3 | CCN1CCN(CC#CCOc2ccccc2OC)CC1 | inconclusive: 14.1 µM [inhibitor, single point]
4 | O=C(COC(=O)CNS(=O)(=O)c1ccc2ccccc2c1)Nc1ccccc1Sc1ccccc1 | inactive
5 | CCCCCCn1c(NCC)nc2c1c(=O)n(C)c(=O)n2C | inconclusive: 17.8 µM [inhibitor, partial curve, poor fit]
6 | C=CCn1c(O)c(C(C)=NCc2cc(OC)cc(OC)c2)c(=O)[nH]c1=O | inactive
7 | CN1C(=O)N(c2nnc(C(C)(C)C)s2)C(=O)C1c1ccccc1 (stereo not drawn) | inconclusive: 8.91 µM [activator, partial curve]
8 | Cc1ccc(OCCn2cc(/C=C3\C(=O)NN(c4ccccc4)C3=O)c3ccccc32)cc1 | inconclusive: 0.794 µM [inhibitor, full curve, poor fit]
9 | CCOC(=O)c1c(C)[nH]c(C)c1-c1ccccc1OC | inactive
10 | CCC(C)(C)NC(=O)CN(C(=O)CCC(=O)Nc1cc(C)ccn1)c1ccc2c(c1)OCCO2 | inconclusive: 14.1 µM [inhibitor, single point]
11 | Cc1ccc(C(=O)N2CCN(c3ccc(F)cc3)CC2)cc1S(=O)(=O)N1CCCCC1 | inconclusive: 10 µM [inhibitor, partial curve]
12 | O/N=C/c1ccccc1OCc1ccc(Cl)cc1 | inconclusive: 0.891 µM [activator, partial curve]
13 | CC1CCCCN1C(=O)CSc1n[nH]c(-c2ccccc2Cl)n1 (stereo not drawn) | inactive
14 | Cc1ccc(C(=O)/C=C/c2ccccc2[N+](=O)[O-])cc1 | inconclusive: 6.31 µM [inhibitor, full curve, poor fit]
15 | Cc1ccccc1CN1C2=NCCCN2c2ccccc21 | inactive
16 | CCN(Cc1ccccc1)S(=O)(=O)c1ccc(C(=O)N(CCCN(C)C)c2nc3c(C)c(C)ccc3s2)cc1 | active: 2.82 µM
17 | CCOc1ccccc1OCCOCCOc1ccccc1[N+](=O)[O-] | inactive
18 | Cc1nn(CCC(=O)Nc2cc(F)ccc2F)c(=O)c2nn(-c3ccccc3)c(C)c12 | inactive
19 | N#C/C(=C\C1CC=CCC1)c1nc2ccccc2[nH]1 (stereo not drawn) | inconclusive: 2.31 µM [inhibitor, full curve, poor fit]
20 | COc1ccc(COC(=O)NN=C2C[C@@H](O)[C@@H](O)[C@@H]3[C@H]4C(=O)N(C5CCCCC5)C(=O)[C@@H]4CC[C@@H]23)cc1 | inconclusive: 0.0531 µM [inhibitor, partial curve, poor fit]
21 | O=C(Cn1cc([N+](=O)[O-])cn1)NCc1cc2ccccc2[nH]1 | inactive
22 | COc1ccc(N2CC(C(=O)Nc3nnc(SCC(=O)c4ccccc4)s3)CC2=O)cc1 (stereo not drawn) | inactive

Single values from the entries so far:
Entry of CCOc1ccccc1OCCOCCOc1ccccc1[N+](=O)[O-] under Potency: inactive
Entry of Cc1nn(CCC(=O)Nc2cc(F)ccc2F)c(=O)c2nn(-c3ccccc3)c(C)c12 under Potency: inactive
Entry of Cc1ccc(C(=O)/C=C/c2ccccc2[N+](=O)[O-])cc1 under Potency: inconclusive: 6.31 µM [inhibitor, full curve, poor fit]

(listing goes on)

Row | Structure (SMILES) | Potency
23 | O=C1OCCC1Sc1nnnn1-c1ccccc1 (stereo not drawn) | inconclusive: 0.355 µM [inhibitor, partial curve, poor fit]
24 | COc1ccc(S(=O)(=O)N2CCC(C(=O)NCC3CCCCC3)CC2)cc1 | inconclusive: 7.08 µM [inhibitor, partial curve, poor fit]
25 | CCc1nnc(NC(=O)NC(C)(C)C)s1 | inconclusive: 0.708 µM [inhibitor, partial curve, poor fit]
26 | CCCCCCn1c(SCC(=O)c2c(N)n(C)c(=O)n(C)c2=O)nc2ccccc21 | inactive
27 | C=CCNC(=S)Nc1ccc2nsnc2c1 | inactive
28 | Cc1ccc(Cc2c(C)nc3nc(SCC(=O)NC4CCC(C)CC4)nn3c2C)cc1 (stereo not drawn) | inconclusive: 17.8 µM [activator, single point]
29 | COc1ccc(O)c(C(=O)CC(=O)c2ccccc2C)c1 | inconclusive: 15.8 µM [inhibitor, single point]
30 | O=C(OCCN1CCCCC1)C1(c2ccccc2)CCCC1 | inconclusive: 12.6 µM [inhibitor, single point]
31 | CC(=O)Nc1ccc(OCC(O)CN2CCN(c3ccccc3Cl)CC2)cc1 (stereo not drawn) | inconclusive: 14.1 µM [inhibitor, partial curve]
32 | O=C(c1cn2ccccc2n1)N1CCc2c([nH]c3ccccc23)C1c1ccccn1 (stereo not drawn) | inconclusive: 35.5 µM [inhibitor, partial curve, poor fit]
33 | O=C(COc1cccc2cccnc12)N/N=C1\SCC(=O)N1CCc1ccccc1 | inconclusive: 35.5 µM [inhibitor, single point]
34 | COc1ccc(/C=N/NC(=O)c2ccc(N3CCCC3=O)cc2)cc1 | inconclusive: 1.78 µM [inhibitor, full curve, poor fit]
35 | CCOC(=O)c1ccc2c(c1)N(CC(=O)N(C)c1ccccc1)C(=O)c1ccccc1S2 | inactive
36 | O=[N+]([O-])c1c(C(Cl)Cl)nn(-c2ccc(Cl)cc2)c1N1CCCCC1 | inconclusive: 7.08 µM [inhibitor, full curve]
37 | CCn1cc(C(=O)N2CCN(c3ccc(C)cc3)C(C)C2)c(=O)c2cc(S(=O)(=O)N3CCCC3)ccc21 (stereo not drawn) | inactive
38 | O=C(N/N=C\c1cc(Br)ccc1O)c1ccc(S(=O)(=O)N2CCCCC2)cc1 | inconclusive: 5.62 µM [inhibitor, full curve, poor fit]
39 | CC1(CCC(=O)N2CCCC(N3CCN(c4ccc(F)cc4)CC3)C2)CC1 (stereo not drawn) | inconclusive: 6.31 µM [inhibitor, single point]
40 | CCCOc1cc(C)c(S(=O)(=O)N2CCOCC2)cc1C | inconclusive: 29.1 µM [inhibitor, single point]
41 | COc1cc2c(cc1OC)C(COc1cccc(C(F)(F)F)c1)N(C(=O)c1ccc(S(=O)(=O)N3CCCC3)cc1)CC2 (stereo not drawn) | inconclusive: 4.47 µM [inhibitor, partial curve, poor fit]
42 | CN(C)S(=O)(=O)c1cccc(COc2cccnc2[N+](=O)[O-])c1 | inconclusive: 1 µM [inhibitor, single point]
43 | CN1CCC(OC(c2ccccc2)c2ccccc2)CC1 | inconclusive: 29.1 µM [inhibitor, single point]
